Two substances from patent publication US7199170B2, “Non-xenoestrogenic stabilizers for organic materials” (Crompton Corporation, priority 1999, dated 2007) can be followed below.

Series [1] is described as follows: Hunter b Color, polyethylene. The note with it: Table 11; stabilizer 0.2%, Naugard 10 0.1%.
Series [2] can be described thus: Long Term Heat Aging (ASTM D3045-92), polypropylene. The note with it: oven 140° C.
Series [3] can be described thus: Yellowness Index (ASTM D1925-70), polypropylene. The note with it: Table 2; stabilizer 0.2%, Naugard 10 0.1%.
Setting [4] is: Table 9, stabilizer 0.2%, Naugard 10 0.1%.

In the case of “Bis(2,4-di-t-butylphenyl)octylphosphite [Stabilizer A]”, in series [1], the “Hunter b Color, Fifth Pass” value was −0.30; the “Hunter b Color, First Pass” value is given as −0.45; the “Hunter b Color, Third Pass” value is −0.43. Besides, the LTHA in series [2] (setting [4]) amounted to 42 days.

As to tris(nonylphenyl)phosphite [TNPP], in series [3], the “Yellowness Index, Fifth Pass” value is given as 25; the “Yellowness Index, First Pass” value came to 13; the “Yellowness Index, Third Pass” value was found to be 18. Besides, in series [1], the “Hunter b Color, Fifth Pass” value is −0.13; the “Hunter b Color, First Pass” value is −0.41; the “Hunter b Color, Third Pass” value is reported as −0.18. In series [2] (Table 3, stabilizer 0.2%, Naugard 10 0.1%), this substance had an LTHA of 66 days. The substance further displayed an LTHA in series [2] (Table 6, stabilizer 0.05%, Naugard 10 0.05%) of 27 days. In series [2] (setting [4]), this substance came in with an LTHA of 50 days.
